# The list shows a part of the results.
# Protein sequences, listed by entry. Tags and fused reporters are not part of them. Lines headed by an entry give the natural chain unless they say otherwise; changes in a name come on top.
# UniProt Q9H9Q4: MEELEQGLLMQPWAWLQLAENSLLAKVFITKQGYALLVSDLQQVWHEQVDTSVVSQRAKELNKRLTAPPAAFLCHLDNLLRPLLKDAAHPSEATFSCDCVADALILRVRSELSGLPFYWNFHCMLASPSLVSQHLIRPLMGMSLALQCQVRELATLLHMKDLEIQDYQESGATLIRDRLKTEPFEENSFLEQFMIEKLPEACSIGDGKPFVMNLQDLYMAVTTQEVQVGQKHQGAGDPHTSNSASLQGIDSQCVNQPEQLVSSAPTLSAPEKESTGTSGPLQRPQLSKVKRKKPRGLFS
# UniProt Q8TB37: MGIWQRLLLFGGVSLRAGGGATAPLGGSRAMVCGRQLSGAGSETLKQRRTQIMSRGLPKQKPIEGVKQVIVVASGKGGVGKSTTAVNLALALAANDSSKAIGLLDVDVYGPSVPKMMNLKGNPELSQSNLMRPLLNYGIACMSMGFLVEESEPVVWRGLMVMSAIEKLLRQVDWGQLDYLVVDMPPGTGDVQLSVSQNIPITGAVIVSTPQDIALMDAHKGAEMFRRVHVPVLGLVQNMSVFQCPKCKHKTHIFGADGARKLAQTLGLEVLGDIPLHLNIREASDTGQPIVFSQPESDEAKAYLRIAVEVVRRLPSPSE
# UniProt O43678, whole entry: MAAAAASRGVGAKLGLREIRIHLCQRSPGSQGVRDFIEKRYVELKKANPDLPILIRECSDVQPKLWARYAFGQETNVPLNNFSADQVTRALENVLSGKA
# UniProt O95167, whole entry: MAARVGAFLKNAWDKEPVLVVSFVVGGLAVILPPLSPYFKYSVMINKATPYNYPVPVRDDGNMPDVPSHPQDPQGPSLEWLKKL
# UniProt Q9Y639: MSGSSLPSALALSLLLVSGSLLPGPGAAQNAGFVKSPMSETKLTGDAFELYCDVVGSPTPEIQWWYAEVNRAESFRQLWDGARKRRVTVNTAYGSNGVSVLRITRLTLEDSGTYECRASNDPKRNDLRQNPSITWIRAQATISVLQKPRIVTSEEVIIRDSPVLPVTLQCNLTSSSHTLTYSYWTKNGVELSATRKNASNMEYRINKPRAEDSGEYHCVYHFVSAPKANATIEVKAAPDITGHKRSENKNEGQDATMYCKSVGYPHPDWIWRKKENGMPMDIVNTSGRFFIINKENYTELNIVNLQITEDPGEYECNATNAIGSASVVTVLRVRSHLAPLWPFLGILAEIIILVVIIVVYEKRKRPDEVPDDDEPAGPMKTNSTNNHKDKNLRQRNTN
# UniProt Q04721: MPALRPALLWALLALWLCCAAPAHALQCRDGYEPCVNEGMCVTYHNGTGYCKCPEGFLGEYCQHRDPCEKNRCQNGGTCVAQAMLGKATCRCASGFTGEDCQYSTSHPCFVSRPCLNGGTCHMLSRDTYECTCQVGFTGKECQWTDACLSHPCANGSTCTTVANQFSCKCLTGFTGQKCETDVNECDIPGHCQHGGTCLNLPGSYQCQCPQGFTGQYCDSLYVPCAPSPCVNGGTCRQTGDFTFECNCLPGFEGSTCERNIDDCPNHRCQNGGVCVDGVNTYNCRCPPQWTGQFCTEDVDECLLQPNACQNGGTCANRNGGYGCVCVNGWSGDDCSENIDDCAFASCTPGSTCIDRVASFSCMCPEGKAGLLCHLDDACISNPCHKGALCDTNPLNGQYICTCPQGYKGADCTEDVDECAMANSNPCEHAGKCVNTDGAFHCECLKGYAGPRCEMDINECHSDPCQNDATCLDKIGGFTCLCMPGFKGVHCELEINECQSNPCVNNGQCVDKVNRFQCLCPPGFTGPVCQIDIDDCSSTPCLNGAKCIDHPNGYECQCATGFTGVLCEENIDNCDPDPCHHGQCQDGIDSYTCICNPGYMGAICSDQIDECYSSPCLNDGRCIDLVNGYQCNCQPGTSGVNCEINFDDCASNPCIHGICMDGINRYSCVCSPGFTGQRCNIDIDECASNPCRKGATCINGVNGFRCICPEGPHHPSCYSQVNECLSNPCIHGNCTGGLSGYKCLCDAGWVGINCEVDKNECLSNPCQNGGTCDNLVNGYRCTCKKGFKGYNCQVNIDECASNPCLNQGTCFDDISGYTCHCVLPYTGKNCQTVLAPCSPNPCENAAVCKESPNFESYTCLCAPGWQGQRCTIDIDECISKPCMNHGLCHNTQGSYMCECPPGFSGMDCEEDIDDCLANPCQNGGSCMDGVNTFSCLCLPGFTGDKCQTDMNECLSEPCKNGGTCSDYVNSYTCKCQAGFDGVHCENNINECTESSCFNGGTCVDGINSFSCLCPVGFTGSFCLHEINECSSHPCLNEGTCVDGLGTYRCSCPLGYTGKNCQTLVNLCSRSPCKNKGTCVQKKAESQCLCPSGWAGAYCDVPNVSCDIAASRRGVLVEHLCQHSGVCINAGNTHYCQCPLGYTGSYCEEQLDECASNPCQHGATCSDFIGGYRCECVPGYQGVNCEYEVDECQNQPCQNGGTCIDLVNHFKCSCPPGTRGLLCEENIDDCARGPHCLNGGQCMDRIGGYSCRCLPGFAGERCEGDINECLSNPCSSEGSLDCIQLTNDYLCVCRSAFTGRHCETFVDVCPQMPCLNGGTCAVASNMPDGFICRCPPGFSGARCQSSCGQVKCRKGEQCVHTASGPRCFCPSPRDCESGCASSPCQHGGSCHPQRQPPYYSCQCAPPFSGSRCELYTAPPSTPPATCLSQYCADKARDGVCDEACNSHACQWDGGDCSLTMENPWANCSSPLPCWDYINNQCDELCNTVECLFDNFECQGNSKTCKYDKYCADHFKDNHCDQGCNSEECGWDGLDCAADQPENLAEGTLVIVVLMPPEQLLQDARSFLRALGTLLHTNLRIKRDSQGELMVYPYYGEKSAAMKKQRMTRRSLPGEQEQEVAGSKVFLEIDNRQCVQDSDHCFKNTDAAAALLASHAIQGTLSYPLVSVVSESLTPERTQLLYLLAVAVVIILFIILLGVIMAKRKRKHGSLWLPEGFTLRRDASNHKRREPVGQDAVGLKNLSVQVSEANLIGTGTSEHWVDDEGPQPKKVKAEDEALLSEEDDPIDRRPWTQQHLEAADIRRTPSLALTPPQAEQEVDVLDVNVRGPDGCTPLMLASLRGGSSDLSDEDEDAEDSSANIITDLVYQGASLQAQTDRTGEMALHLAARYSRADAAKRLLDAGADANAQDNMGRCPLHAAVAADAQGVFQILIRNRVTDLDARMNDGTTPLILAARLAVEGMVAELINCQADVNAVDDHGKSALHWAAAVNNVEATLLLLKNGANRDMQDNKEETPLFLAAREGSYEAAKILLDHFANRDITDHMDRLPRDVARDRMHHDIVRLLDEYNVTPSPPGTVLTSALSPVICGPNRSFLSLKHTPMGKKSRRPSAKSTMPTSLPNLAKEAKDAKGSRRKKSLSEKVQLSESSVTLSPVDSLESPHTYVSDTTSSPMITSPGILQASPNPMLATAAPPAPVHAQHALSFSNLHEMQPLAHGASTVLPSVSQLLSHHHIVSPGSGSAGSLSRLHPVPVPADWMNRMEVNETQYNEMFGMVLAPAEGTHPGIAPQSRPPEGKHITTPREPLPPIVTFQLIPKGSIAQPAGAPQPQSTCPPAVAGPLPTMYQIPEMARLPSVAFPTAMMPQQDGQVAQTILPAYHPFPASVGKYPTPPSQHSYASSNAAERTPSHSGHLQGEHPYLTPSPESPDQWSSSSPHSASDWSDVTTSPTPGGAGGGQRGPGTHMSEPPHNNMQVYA
# UniProt P03886, whole entry: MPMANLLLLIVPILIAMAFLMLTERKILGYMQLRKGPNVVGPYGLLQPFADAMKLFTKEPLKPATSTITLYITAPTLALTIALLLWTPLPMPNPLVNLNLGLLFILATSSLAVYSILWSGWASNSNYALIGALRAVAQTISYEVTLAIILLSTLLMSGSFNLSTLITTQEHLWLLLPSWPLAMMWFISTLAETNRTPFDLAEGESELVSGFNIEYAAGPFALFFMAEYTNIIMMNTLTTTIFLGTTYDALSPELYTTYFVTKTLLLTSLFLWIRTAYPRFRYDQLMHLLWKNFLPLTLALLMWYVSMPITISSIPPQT
# UniProt P55786: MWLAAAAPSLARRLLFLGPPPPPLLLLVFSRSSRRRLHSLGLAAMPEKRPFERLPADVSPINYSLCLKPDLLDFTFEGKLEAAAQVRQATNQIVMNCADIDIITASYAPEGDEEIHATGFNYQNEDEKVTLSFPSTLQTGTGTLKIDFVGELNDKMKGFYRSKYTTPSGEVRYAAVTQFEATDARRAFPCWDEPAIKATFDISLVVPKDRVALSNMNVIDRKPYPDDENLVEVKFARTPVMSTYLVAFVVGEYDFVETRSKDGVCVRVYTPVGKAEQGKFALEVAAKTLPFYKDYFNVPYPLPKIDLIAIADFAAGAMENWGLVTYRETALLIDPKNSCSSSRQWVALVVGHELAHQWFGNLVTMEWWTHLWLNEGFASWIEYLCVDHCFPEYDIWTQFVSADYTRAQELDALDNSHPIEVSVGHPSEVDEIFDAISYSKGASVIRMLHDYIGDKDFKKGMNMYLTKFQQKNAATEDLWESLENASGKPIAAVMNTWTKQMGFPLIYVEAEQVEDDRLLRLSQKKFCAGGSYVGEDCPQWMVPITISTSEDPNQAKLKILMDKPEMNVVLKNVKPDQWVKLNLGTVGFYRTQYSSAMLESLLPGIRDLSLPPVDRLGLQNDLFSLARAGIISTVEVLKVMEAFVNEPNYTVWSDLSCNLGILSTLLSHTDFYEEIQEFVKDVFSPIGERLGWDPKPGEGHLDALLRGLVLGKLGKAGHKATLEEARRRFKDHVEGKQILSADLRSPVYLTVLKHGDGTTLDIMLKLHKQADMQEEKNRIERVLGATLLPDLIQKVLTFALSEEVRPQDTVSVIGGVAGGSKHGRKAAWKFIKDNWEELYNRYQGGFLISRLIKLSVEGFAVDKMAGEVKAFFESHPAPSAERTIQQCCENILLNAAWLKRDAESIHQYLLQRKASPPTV
# UniProt Q13772: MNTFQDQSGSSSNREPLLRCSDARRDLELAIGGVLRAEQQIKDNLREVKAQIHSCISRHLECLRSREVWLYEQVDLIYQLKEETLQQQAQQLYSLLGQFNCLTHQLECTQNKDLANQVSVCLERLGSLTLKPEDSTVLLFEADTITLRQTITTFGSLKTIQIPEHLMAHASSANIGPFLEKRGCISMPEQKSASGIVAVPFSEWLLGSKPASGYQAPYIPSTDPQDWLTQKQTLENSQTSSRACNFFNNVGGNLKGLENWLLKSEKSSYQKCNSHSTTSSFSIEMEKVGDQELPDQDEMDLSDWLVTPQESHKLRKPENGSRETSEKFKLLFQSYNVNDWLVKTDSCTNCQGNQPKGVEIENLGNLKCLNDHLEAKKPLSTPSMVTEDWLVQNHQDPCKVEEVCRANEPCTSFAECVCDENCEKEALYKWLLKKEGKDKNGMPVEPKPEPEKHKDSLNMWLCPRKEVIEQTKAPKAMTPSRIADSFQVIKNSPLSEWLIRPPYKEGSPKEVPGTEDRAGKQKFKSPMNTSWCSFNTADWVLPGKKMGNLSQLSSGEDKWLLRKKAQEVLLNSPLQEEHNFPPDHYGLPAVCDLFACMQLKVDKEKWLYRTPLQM
# UniProt Q9BPX3, whole entry, looked up: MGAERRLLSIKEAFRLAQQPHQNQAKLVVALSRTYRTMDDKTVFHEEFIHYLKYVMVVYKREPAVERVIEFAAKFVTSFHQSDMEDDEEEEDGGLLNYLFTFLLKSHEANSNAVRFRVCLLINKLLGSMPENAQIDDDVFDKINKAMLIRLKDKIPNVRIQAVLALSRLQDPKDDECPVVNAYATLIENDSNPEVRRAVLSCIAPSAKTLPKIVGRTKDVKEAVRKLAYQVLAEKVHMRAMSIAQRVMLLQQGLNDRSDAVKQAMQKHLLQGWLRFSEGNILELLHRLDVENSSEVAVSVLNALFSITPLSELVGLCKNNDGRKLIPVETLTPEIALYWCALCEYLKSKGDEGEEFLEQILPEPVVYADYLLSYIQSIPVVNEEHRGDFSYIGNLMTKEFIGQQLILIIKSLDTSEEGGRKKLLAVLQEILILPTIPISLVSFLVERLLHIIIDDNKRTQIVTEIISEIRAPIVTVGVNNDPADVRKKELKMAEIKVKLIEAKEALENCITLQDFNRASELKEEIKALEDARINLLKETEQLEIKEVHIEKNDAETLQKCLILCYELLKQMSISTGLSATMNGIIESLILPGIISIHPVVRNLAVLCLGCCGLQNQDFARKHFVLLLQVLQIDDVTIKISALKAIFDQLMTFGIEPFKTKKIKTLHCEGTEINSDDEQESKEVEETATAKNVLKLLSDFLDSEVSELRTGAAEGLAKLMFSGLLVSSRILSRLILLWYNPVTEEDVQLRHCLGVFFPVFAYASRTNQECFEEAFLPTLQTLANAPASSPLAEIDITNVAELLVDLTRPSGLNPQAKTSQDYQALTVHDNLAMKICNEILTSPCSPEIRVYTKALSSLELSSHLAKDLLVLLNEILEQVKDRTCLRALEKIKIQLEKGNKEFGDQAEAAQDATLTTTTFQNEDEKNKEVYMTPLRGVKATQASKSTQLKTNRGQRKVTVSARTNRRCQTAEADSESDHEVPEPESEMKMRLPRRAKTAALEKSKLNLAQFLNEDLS
# Compound: COc1ccc(Cn2ccc3cc(C)c(C(=O)NO)cc32)cc1
# Assay: dose-dependent thermal stabilisation call (2D-TPP, DLPTP, 10% FDR) (binary (1 = stabilised)); higher = stabilised by the compound
# Settings: system: HL-60 intact cells; concentration range 0.04-10 µM
# Description: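 2D thermal proteome profiling in intact HL-60 cells treated with BRD-3811 (0, 0.04, 0.29, 2, 10 uM) for 90 min at 37 C, then heated 3 min at one of 12 temperatures (42-63.9 C). Soluble protein was quantified by TMT10 MS. The value is the DLPTP call of the paper: dose-dependent thermal stabilisation over all temperatures at 10% FDR (F-test of a dose-response against a flat model); one experiment, one call per tested protein.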
row,Target,dose-dependent thermal stabilisation call
1,NUSAP1 (UniProt Q9BXS6),inactive: 0
2,NFXL1 (UniProt Q6ZNB6),inactive: 0
3,NCAPD3 (UniProt P42695),inactive: 0
4,NCOR1 (UniProt O75376),inactive: 0
5,OAS3 (UniProt Q9Y6K5),inactive: 0
6,NFKB2 (UniProt Q00653),inactive: 0
7,NSUN5 (UniProt Q96P11),inactive: 0
8,NUCKS1 (UniProt Q9H1E3),inactive: 0
9,NUP160 (UniProt Q12769),inactive: 0
10,NHEJ1 (UniProt Q9H9Q4),inactive: 0
11,NUBPL (UniProt Q8TB37),inactive: 0
12,NEK9 (UniProt Q8TD19),inactive: 0
13,NIT1 (UniProt Q86X76),inactive: 0
14,NAT1 (UniProt P18440),inactive: 0
15,NUDT2 (UniProt P50583),inactive: 0
16,NDUFV1 (UniProt P49821),inactive: 0
17,NISCH (UniProt Q9Y2I1),inactive: 0
18,NDUFA2 (UniProt O43678),inactive: 0
19,NOL5A (UniProt O00567),inactive: 0
20,NDUFA3 (UniProt O95167),inactive: 0

# Rewritten with tabs: entries from further up
row	Target	dose-dependent thermal stabilisation call
13	NIT1 (UniProt Q86X76)	inactive: 0
14	NAT1 (UniProt P18440)	inactive: 0

# (continued)

row,Target,dose-dependent thermal stabilisation call
1,ND4 (UniProt P03905),inactive: 0
2,NPTN (UniProt Q9Y639),inactive: 0
3,NRF1 (UniProt Q16656),inactive: 0
4,NOTCH2 (UniProt Q04721),inactive: 0
5,NOL10 (UniProt Q9BSC4),inactive: 0
6,NAPRT1 (UniProt Q6XQN6),inactive: 0
7,ND1 (UniProt P03886),inactive: 0
8,NSDHL (UniProt Q15738),active: 1
9,NUP88 (UniProt Q99567),inactive: 0
10,NSUN2 (UniProt Q08J23),inactive: 0
11,NPEPPS (UniProt P55786),active: 1
12,NFYA (UniProt P23511),inactive: 0
13,NDUFV3 (UniProt P56181),inactive: 0
14,NCOA4 (UniProt Q13772),inactive: 0
15,NCAPG (UniProt Q9BPX3),inactive: 0
16,NAPA (UniProt P54920),inactive: 0
17,NUP188 (UniProt Q5SRE5),inactive: 0
18,NAF1 (UniProt Q96HR8),inactive: 0
19,NUDT1 (UniProt P36639),inactive: 0
20,NAGLU (UniProt P54802),inactive: 0

# — the supplement of paper PMC7666118
